Values from PubChem BioAssay AID1159578 (Peter MacCallum Cancer Centre, 2015).
The deposit covers about 18,000 reagents; this is a part drawn at random. Of all reagents, about 1,030 (5.7%) got an active call. 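Inactive calls also include pools with fewer than 3300 nuclei, whose migration was not assessed.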 Raw values are not corrected between plates. Reagent sequences are not shown.

Assay: 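siRNA pools altering how lymphatic endothelial cells close a scratch wound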 (primary screen)
Cell system: human lymphatic endothelial cells
Reagents: siRNA pool against human genes, 40 nM
Duration: 48 h after transfection
Measured: 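Cells stained with dye and imaged after a scratch; covered wound area and nuclei counted, duplicates averaged, migration set against mock wells and turned into a robust z-score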
Scale: migration robust z-score: higher = faster migration into the scratch; migration relative to mock: higher = more scratch area covered than mock; nuclei per well: higher = more cells in the well
Hit rule: 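Pools averaging fewer than 3300 nuclei are never called; remaining pools count as changed when migration robust z lies outside -2 to 2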
Meaning of the calls: active = migration changed; inactive = no migration change, or too few cells

| gene | migration robust z-score | migration class with cell-count check | migration relative to mock | nuclei per well, duplicate mean | activity call |
| --- | --- | --- | --- | --- | --- |
| PIWIL3 | 0.4 | migration z between -2 and 2; enough cells | 0.99 | 6089 | inactive |
| CLK2 | 0.08 | migration z between -2 and 2; enough cells | 0.82 | 4610 | inactive |
| POU4F2 | 1.38 | migration z between -2 and 2; enough cells | 1.07 | 7378 | inactive |
| CES5A | -0.8 | migration z between -2 and 2; enough cells | 0.65 | 5344 | inactive |
| PHB1 | 0.03 | migration z between -2 and 2; enough cells | 0.81 | 5961 | inactive |
| DLX4 | -0.62 | migration z between -2 and 2; enough cells | 0.68 | 5301 | inactive |
| NSG1 | -1.75 | migration z between -2 and 2; enough cells | 0.44 | 4526 | inactive |
| FCN1 | -0.32 | migration z between -2 and 2; enough cells | 0.8 | 6660 | inactive |
| GPER1 | 0 | migration z between -2 and 2; enough cells | 0.8 | 5157 | inactive |
| CHID1 | -1.43 | migration z between -2 and 2; enough cells | 0.53 | 5790 | inactive |
| DUSP29 | 1.19 | migration z between -2 and 2; enough cells | 1.19 | 5381 | inactive |
| GALNT17 | 0.44 | migration z between -2 and 2; enough cells | 0.89 | 6190 | inactive |
| FKBP9 | 0.13 | migration z between -2 and 2; enough cells | 0.83 | 6228 | inactive |
| TRIM64 | -1.06 | migration z between -2 and 2; enough cells | 0.6 | 4318 | inactive |
| DPF2 | 0.62 | migration z between -2 and 2; enough cells | 0.92 | 6640 | inactive |
| ZMYM2 | 0.09 | migration z between -2 and 2; enough cells | 0.91 | 5550 | inactive |
| CNOT8 | 0.05 | migration z between -2 and 2; enough cells | 0.82 | 5256 | inactive |
| OR2A4 | 0.6 | migration z between -2 and 2; enough cells | 1.04 | 5734 | inactive |
| RAPGEF6 | -1.03 | under 3300 nuclei; migration not judged | 0.6 | 3259 | inactive |
| ZSCAN1 | 1.27 | migration z between -2 and 2; enough cells | 1.21 | 7272 | inactive |
| ANGEL1 | -1.99 | migration z between -2 and 2; enough cells | 0.37 | 5412 | inactive |
| ATP9A | 0.48 | migration z between -2 and 2; enough cells | 1.01 | 5873 | inactive |
| NCOR1 | 0.36 | migration z between -2 and 2; enough cells | 0.88 | 4644 | inactive |
| AZU1 | 1.09 | migration z between -2 and 2; enough cells | 1.02 | 5476 | inactive |
| ABCB10 | -0.76 | migration z between -2 and 2; enough cells | 0.66 | 6080 | inactive |
| IL4R | -0.52 | migration z between -2 and 2; enough cells | 0.7 | 4574 | inactive |
| ACTL9 | -0.72 | migration z between -2 and 2; enough cells | 0.7 | 5094 | inactive |

Reprinted from the entries so far for reference:
| gene | migration robust z-score | migration class with cell-count check | migration relative to mock | nuclei per well, duplicate mean | activity call |
| --- | --- | --- | --- | --- | --- |
| PIWIL3 | 0.4 | migration z between -2 and 2; enough cells | 0.99 | 6089 | inactive |
| CLK2 | 0.08 | migration z between -2 and 2; enough cells | 0.82 | 4610 | inactive |
| POU4F2 | 1.38 | migration z between -2 and 2; enough cells | 1.07 | 7378 | inactive |
| CES5A | -0.8 | migration z between -2 and 2; enough cells | 0.65 | 5344 | inactive |
| PHB1 | 0.03 | migration z between -2 and 2; enough cells | 0.81 | 5961 | inactive |

The results go on:
| gene | migration robust z-score | migration class with cell-count check | migration relative to mock | nuclei per well, duplicate mean | activity call |
| --- | --- | --- | --- | --- | --- |
| ZNF878 | -0.26 | migration z between -2 and 2; enough cells | 0.82 | 5705 | inactive |
| PIAS3 | 1.14 | migration z between -2 and 2; enough cells | 1.02 | 4972 | inactive |
| SACK1C | -0.28 | migration z between -2 and 2; enough cells | 0.82 | 6806 | inactive |
| SHROOM2 | -0.34 | migration z between -2 and 2; enough cells | 0.74 | 4218 | inactive |
| CD69 | 0.28 | migration z between -2 and 2; enough cells | 0.86 | 5753 | inactive |
| SIX1 | 2.64 | migration z above 2; enough cells | 1.31 | 7304 | active |
| COL6A2 | -1.31 | migration z between -2 and 2; enough cells | 0.54 | 4332 | inactive |
| KCNC2 | 0.31 | migration z between -2 and 2; enough cells | 0.86 | 5263 | inactive |
| APBA3 | -4.75 | migration z below -2; enough cells | -0.11 | 3670 | active |
| CA11 | -0.57 | migration z between -2 and 2; enough cells | 0.7 | 6034 | inactive |
| TUBB6 | 0.34 | migration z between -2 and 2; enough cells | 0.87 | 6438 | inactive |
| FGD5 | 0.36 | migration z between -2 and 2; enough cells | 0.98 | 4842 | inactive |
| MED12L | -0.11 | migration z between -2 and 2; enough cells | 0.86 | 5746 | inactive |
| CAPZA1 | 2.17 | migration z above 2; enough cells | 1.45 | 5741 | active |
| SCGB1D2 | 0.82 | migration z between -2 and 2; enough cells | 1.1 | 5736 | inactive |
| LYRM2 | -0.92 | migration z between -2 and 2; enough cells | 0.64 | 4902 | inactive |
| BCL7C | 0.9 | migration z between -2 and 2; enough cells | 1.12 | 6004 | inactive |
| DNAJA4 | 0.54 | migration z between -2 and 2; enough cells | 0.91 | 7354 | inactive |
| BLOC1S4 | -0.02 | migration z between -2 and 2; enough cells | 0.88 | 5167 | inactive |
| MYOD1 | 0.26 | migration z between -2 and 2; enough cells | 0.86 | 6943 | inactive |
| CXorf58 | 2.75 | migration z above 2; enough cells | 1.59 | 7072 | active |
| DPYSL4 | -1.01 | migration z between -2 and 2; enough cells | 0.61 | 6632 | inactive |
| NPSR1 | 1.17 | migration z between -2 and 2; enough cells | 1.03 | 7044 | inactive |
| TSHR | 0.44 | migration z between -2 and 2; enough cells | 0.89 | 6239 | inactive |
| PEX14 | 0.31 | migration z between -2 and 2; enough cells | 0.96 | 5735 | inactive |
| EZH1 | 0.96 | migration z between -2 and 2; enough cells | 0.99 | 5656 | inactive |
| PRAP1 | -0.98 | migration z between -2 and 2; enough cells | 0.63 | 5651 | inactive |
| PGAP6 | -1.15 | migration z between -2 and 2; enough cells | 0.58 | 6864 | inactive |
| LIG3 | 0.34 | migration z between -2 and 2; enough cells | 0.87 | 6150 | inactive |
| CISD1 | -0.18 | migration z between -2 and 2; enough cells | 0.84 | 6620 | inactive |
| ACLY | 0.02 | migration z between -2 and 2; enough cells | 0.89 | 6778 | inactive |
| ANGPTL1 | 0.02 | migration z between -2 and 2; enough cells | 0.81 | 4874 | inactive |
| CYP26B1 | -0.49 | migration z between -2 and 2; enough cells | 0.71 | 6994 | inactive |
| HIPK1 | -2.26 | migration z below -2; enough cells | 0.37 | 4028 | active |
| BCL2L14 | -0.33 | migration z between -2 and 2; enough cells | 0.8 | 5386 | inactive |
| ZNF420 | 0.52 | migration z between -2 and 2; enough cells | 1.02 | 6624 | inactive |
| GPR12 | -0.8 | migration z between -2 and 2; enough cells | 0.65 | 4540 | inactive |
| TRAK2 | -0.6 | migration z between -2 and 2; enough cells | 0.69 | 6704 | inactive |
| ZZZ3 | -0.8 | migration z between -2 and 2; enough cells | 0.68 | 6078 | inactive |
| EIF2S2 | -3.6 | migration z below -2; enough cells | 0.11 | 6145 | active |
| MINDY1 | -0.88 | migration z between -2 and 2; enough cells | 0.66 | 6046 | inactive |
| EVA1C | -1.27 | migration z between -2 and 2; enough cells | 0.55 | 6362 | inactive |
| SERPINA5 | -0.13 | migration z between -2 and 2; enough cells | 0.78 | 6154 | inactive |
| NFYA | 2.1 | migration z above 2; enough cells | 1.21 | 5724 | active |
| NDUFAF5 | 0.71 | migration z between -2 and 2; enough cells | 1.07 | 5536 | inactive |
| EEF1AKMT2 | 1.05 | migration z between -2 and 2; enough cells | 1.16 | 5884 | inactive |
